Values from PubChem BioAssay AID1224826 (NIAID, 2016)
In all, the deposit lists about 17,000 reagents; below is a random part of them. In the full data, about 1,110 (6.6%) are marked active. 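Active means lowered or raised reporter signal; replicate intensities are raw and not normalised per plate.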 The numbers tell different reagents against one gene apart. Some reagents were tested in more than one well and are listed for each.

- Purpose: 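Knock-downs that raise or lower Tnf reporter signal after endotoxin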 (primary screen)
- Cell system: RAW264.7 G9 macrophages from mouse bearing reporters for p65 (GFP) and the Tnf promoter (mCherry)
- Reagent: siRNA pool against mouse genes, 100 nM
- Time to read-out: 16 h of LPS stimulation, after 2 days of siRNA transfection
- Conditions: bacterial lipopolysaccharide (Salmonella minnesota R595), 10 ng/ml
- Detection: 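Imaged Tnf reporter mCherry in nuclei, minus background, normalised per plate to the median and expressed as robust z-scores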
- Scale: Tnf reporter robust z-score: higher = stronger Tnf promoter reporter signal after LPS; Tnf reporter intensity: higher = stronger Tnf promoter reporter signal
- Rule for the call: 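Called active when robust z-score is at most -1.3, matching the median of the Tlr4 knock-down control, or over 3; control wells and wells with under 50 cells never active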
- Meaning of the calls: active = Tnf reporter clearly lowered or raised; inactive = no clear change in Tnf reporter

gene symbol	reagent	Tnf reporter robust z-score	fewer than 50 cells in well	Tnf reporter intensity, replicate 1	Tnf reporter intensity, replicate 2	activity call
Tada3	1	1.22	enough cells in well	315	198	inactive
Ifnz	1	1.08	enough cells in well	262	197	inactive
Imp3	1		fewer than 50 cells per well; well left out of calls	219	69.7	inactive
Rgs6	1	0.94	enough cells in well	396	75.9	inactive
Was	1	-0.8	enough cells in well	196	162	inactive
Or3a10	1	-0.83	enough cells in well	243	50.2	inactive
Snrpc	1	-0.96	enough cells in well	110	61	inactive
Kdm5a	1	-0.11	enough cells in well	241	137	inactive
Grid2	1	1.8	enough cells in well	414	377	inactive
Kctd12	1	-1.29	enough cells in well	116	58.7	inactive
Syt2	1	-0.36	enough cells in well	111	75	inactive
Zdhhc21	1	-0.1	enough cells in well	115	125	inactive
Or8k33	1	-0.48	enough cells in well	179	108	inactive
C6	1	-0.19	enough cells in well	151	131	inactive
Antkmt	1	-0.12	enough cells in well	147	257	inactive
Rgs7	1	0.55	enough cells in well	162	146	inactive
Rgs7	1	0.18	enough cells in well	342	78.8	inactive
Foxp4	1	0.45	enough cells in well	265	171	inactive
Ca6	1	-0.73	enough cells in well	108	155	inactive
HMGB2	1	-1	enough cells in well	179	97.9	inactive
Arpp21	1	-0.21	enough cells in well	152	88.5	inactive
Arpp21	2	-0.67	enough cells in well	220	40.2	inactive
Prkn	1	0.69	enough cells in well	260	254	inactive
Tmem98	1		fewer than 50 cells per well; well left out of calls	151	139	inactive
Vmn1r219	1	-1.26	enough cells in well	70.5	49.6	inactive
Cldn12	1	-0.15	enough cells in well	194	235	inactive
Gnpnat1	1	-0.3	enough cells in well	225	145	inactive
Or11h4b	1	0.88	enough cells in well	161	110	inactive
Def8	1	0.6	enough cells in well	174	236	inactive
Tmem144	1	2.49	enough cells in well	347	250	inactive
Mcpt4	1	-0.48	enough cells in well	161	49.3	inactive
Ptdss1	1	-1.44	enough cells in well	136	90.7	active
Or5d20	1	-1.41	enough cells in well	77.4	95.7	active
Mtmr6	1	0.33	enough cells in well	283	236	inactive
Dek	1	0.32	enough cells in well	247	239	inactive
Muc19	1	-0.75	enough cells in well	125	104	inactive
Or51m1	1	0.58	enough cells in well	82.7	185	inactive
Btrc	1	-0.53	enough cells in well	113	141	inactive
Myrip	1	-0.31	enough cells in well	242	178	inactive
Noa1	1	-0.86	enough cells in well	151	49.2	inactive
Serpinc1	1	1.96	enough cells in well	458	361	inactive
Map4k2	1		fewer than 50 cells per well; well left out of calls	171	98.8	inactive
Myh14	1		fewer than 50 cells per well; well left out of calls	209	49.2	inactive
Ccna1	1	-0.66	enough cells in well	196	157	inactive
Ttc33	1		fewer than 50 cells per well; well left out of calls	371	121	inactive
Osbpl2	1		fewer than 50 cells per well; well left out of calls	88	56.1	inactive
Batf	1	1.75	enough cells in well	213	283	inactive
Hadhb	1	1.57	enough cells in well	329	318	inactive
Prelid3b	1		fewer than 50 cells per well; well left out of calls	106	58.9	inactive
Adgrb2	1	0.26	enough cells in well	249	295	inactive
Mpst	1	1.18	enough cells in well	368	288	inactive
Ctbp2	1	0.04	enough cells in well	218	226	inactive
Mthfd2	1	-0.43	enough cells in well	197	88.7	inactive
Gtf3a	1	0.94	enough cells in well	352	197	inactive
Higd1b	1		fewer than 50 cells per well; well left out of calls	206	80.3	inactive
Sfrp4	1	-0.68	enough cells in well	229	153	inactive
Mis12	1		fewer than 50 cells per well; well left out of calls	188	57.1	inactive
Gm9801	1	1.9	enough cells in well	289	243	inactive
Cldn11	1	-0.37	enough cells in well	223	175	inactive
Pik3c2g	1	-1.32	enough cells in well	81.5	115	active
Pgam2	1	-0.64	enough cells in well	196	137	inactive
Lrrc58	1	0.2	enough cells in well	138	174	inactive
Ing5	1	1.2	enough cells in well	253	196	inactive
Dynlrb2	1	-0.35	enough cells in well	209	177	inactive
Taf7	1	0.34	enough cells in well	211	180	inactive
Fbxl19	1	-0.71	enough cells in well	0	123	inactive
Adig	1	-0.68	enough cells in well	86.4	126	inactive
Satb1	1	-0.14	enough cells in well	144	99.1	inactive
Kctd12b	1	0.06	enough cells in well	159	159	inactive
Il3	1	-0.94	enough cells in well	136	87.1	inactive
Brpf1	1	-1.54	enough cells in well	66.1	83.1	active
Fgfbp3	1	0.27	enough cells in well	270	71.5	inactive
Nfia	1	0.48	enough cells in well	298	198	inactive
Nfia	2	-0.93	enough cells in well	150	102	inactive
Gk5	1	0.58	enough cells in well	156	159	inactive
